Results deposited as PubChem BioAssay AID504804 (Drosophila RNAi Screening Center, 2011).

Assay: 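dsRNAs that improve Kc cell survival under doxorubicin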 (primary screen)
Cell system: Drosophila Kc cells
Reagent: long dsRNA against Drosophila genes, 0.5 µg dsRNA per well
Timing: 96 h (48 h knock-down, then 48 h drug)
Conditions: doxorubicin 5 µg/ml for 48 h, added 48 h after dsRNA
Read-out: 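Viability measured as cellular ATP by luminescence after 48 h knock-down then 48 h doxorubicin at 5 µg/ml; unnormalised plate counts for each replicate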
Reading the numbers: raw ATP luminescence: higher = more viable cells, protection from doxorubicin
Rule for the call: 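Active when both duplicate wells lie at least 2 SD above the plate mean and protection is confirmed by rescreening and independent dsRNAs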
The screen tested about 19,000 reagents; below is an unselected part of those that have a named target and a result. In the full data, 47 (0.25%) got an active call. 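Signals are raw, not normalised; exact z-scores behind calls not deposited; actives needed confirmation, so some wells reaching 2 SD are inactive.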 The numbers tell different reagents against one gene apart.

Which result is listed for Mid1 #1?
raw ATP luminescence, replicate 1: 53297; raw ATP luminescence, replicate 2: 49243; Call: inactive

With Mid1 #2, what does the deposit list?
raw ATP luminescence, replicate 1: 43863; raw ATP luminescence, replicate 2: 49813; Call: inactive

What did the screen give for Mid1 #3?
raw ATP luminescence, replicate 1: 42297; raw ATP luminescence, replicate 2: 45133; Call: inactive

What did the screen give for rig?
raw ATP luminescence, replicate 1: 67500; raw ATP luminescence, replicate 2: 52400; Call: inactive

With mamo, what does the deposit list?
raw ATP luminescence, replicate 1: 2.46e5; raw ATP luminescence, replicate 2: 2.21e5; Call: inactive

What did the screen give for CG34330?
raw ATP luminescence, replicate 1: 3.68e5; raw ATP luminescence, replicate 2: 3.08e5; Call: inactive

How did the screen score yellow-f?
raw ATP luminescence, replicate 1: 1.04e5; raw ATP luminescence, replicate 2: 75130; Call: inactive

Laid out differently: results already given.
Gene | reagent no. | SD above plate mean | raw ATP luminescence, replicate 1 | raw ATP luminescence, replicate 2 | Call
Mid1 | 2 | – | 43863 | 49813 | inactive
Mid1 | 3 | – | 42297 | 45133 | inactive

Continued:
With PEK, what does the deposit list?
raw ATP luminescence, replicate 1: 55247; raw ATP luminescence, replicate 2: 32363; Call: inactive

With gcm2, what was measured?
raw ATP luminescence, replicate 1: 36363; raw ATP luminescence, replicate 2: 74403; Call: inactive

Which result is listed for p-cup?
raw ATP luminescence, replicate 1: 2.43e5; raw ATP luminescence, replicate 2: 2.28e5; Call: inactive

With CG2120, what was measured?
raw ATP luminescence, replicate 1: 40760; raw ATP luminescence, replicate 2: 49190; Call: inactive

Which result is listed for CG5177?
raw ATP luminescence, replicate 1: 1.21e5; raw ATP luminescence, replicate 2: 65410; Call: inactive

Which result is listed for egh?
SD above plate mean: at least 2 SD above plate mean; raw ATP luminescence, replicate 1: 79970; raw ATP luminescence, replicate 2: 78710; Call: inactive

Which result is listed for ddbt?
raw ATP luminescence, replicate 1: 1.57e5; raw ATP luminescence, replicate 2: 1.68e5; Call: inactive

What is on record for CG9815?
raw ATP luminescence, replicate 1: 61627; raw ATP luminescence, replicate 2: 49087; Call: inactive

With CG2765, how do the results read?
raw ATP luminescence, replicate 1: 51190; raw ATP luminescence, replicate 2: 48120; Call: inactive

For CG6996, what was measured?
raw ATP luminescence, replicate 1: 67403; raw ATP luminescence, replicate 2: 58493; Call: inactive

What is on record for e(y)2?
raw ATP luminescence, replicate 1: 2.58e5; raw ATP luminescence, replicate 2: 2.10e5; Call: inactive

For Aven, how do the results read?
raw ATP luminescence, replicate 1: 2.91e5; raw ATP luminescence, replicate 2: 2.96e5; Call: inactive
